# Assay results taken from US11957735B2 (QuiaPEG Pharmaceuticals AB, priority 2018, dated 2024).
# Experiment: peptide synthesis
# Conditions: conjugation step, RP-HPLC
substance,measurement,value
PEG-liraglutide,purity (crude or final not stated),about 97%
